{"source": "patent US20200316090A1", "about": "“TARGETED THERAPEUTICS” (MADRIGAL PHARMACEUTICALS, INC., priority 2012, published 2020)", "assay": "Artificial membrane permeability assay (PAMPA)", "data": [{"smiles": "NS(=O)(=O)c1cc(C(=O)O)c(NCc2ccco2)cc1Cl", "note": "[Furosemide]", "values": [{"measurement": "Mass Retention (%)", "setting": "5 h incubation, first table", "result": 7.53, "unit": "%"}, {"measurement": "Mass Retention (%)", "setting": "same protocol, second table", "result": 2.63, "unit": "%"}]}]}
